PubChem BioAssay AID602196 | INSERM, 2012

- Purpose: 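Genes whose knock-down alters cisplatin killing of lung cancer cells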
- System: human A549 lung cancer cells
- Reagents: siRNA pair against human genes
- Time to read-out: 48 h transfection before cisplatin; time from cisplatin to read-out not stated
- Treatment: cisplatin at a dose killing half of control-siRNA cells; exact dose and duration not given
- Measured: 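Shift in cisplatin death relative to control siRNA, from -50 (all cells die) to +50 (no cells die); siRNAs harmful on their own scored 0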
- Reading the numbers: two-siRNA summed score (-2 to +2): higher = both siRNAs protect from cisplatin killing; -2 means both sensitise; mean protection from cisplatin (shift in death) and protection from cisplatin (shift in death), siRNA C and protection from cisplatin (shift in death), siRNA D: higher = protection from cisplatin killing
- Call rule: 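siRNAs harmful alone (LDH or WST-1) get 0; others get +1 for less and -1 for more cisplatin killing; genes are active when the two siRNAs give the same sign, summing to ±2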
- Calls: active = both siRNAs shift cisplatin killing the same way; inactive = no consistent shift, or siRNA harmful alone
The deposit covers about 23,000 reagents; shown is a part drawn at random. Over the whole deposit, 455 (2%) are marked active. 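Active includes both protection and sensitisation; some change values fall well beyond the stated -50 to +50 range.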 Entries without a mark were called inactive. Reagent sequences are not shown. Not stated in the record: the amount of reagent.

no.	gene knocked down	PubChem SID	two-siRNA summed score (-2 to +2)	mean protection from cisplatin (shift in death) (%)	protection from cisplatin (shift in death), siRNA C (%)	protection from cisplatin (shift in death), siRNA D (%)
1	GBP7 (GeneID 388646)	SID131513784	0	7	6.5	7.6
2	LOC441971	SID131512800	0	5.9	11.4	0.4
3	SCEL (GeneID 8796)	SID131520705	1	10.9	18.1	3.6
4	PMEL (GeneID 6490)	SID131513330	0	6.5	6.3	6.7
5	LOC286140	SID131516970	0	12.1	4.4	19.8
6	GPR176 (GeneID 11245)	SID131517490	0	13.6	12.3	14.9
7	DNAAF10 (GeneID 116143)	SID131506983	0	-0.7	-4.7	3.3
8	CASP2 (GeneID 835)	SID131505038	0	-3.9	-14.3	6.4
9	THAP9 (GeneID 79725)	SID131510352	0	3.2	-1.5	7.9
10	COX6B1 (GeneID 1340)	SID131523182	2 (active)	23.9	24.9	22.9
11	ZNF705A (GeneID 440077)	SID131512729	0	5.8	-7.1	18.7
12	C1orf159 (GeneID 54991)	SID131504813	0	-4.4	-17.2	8.3
13	LOC389189	SID131511696	0	4.6	4.4	4.9
14	SYNGR2 (GeneID 9144)	SID131504369	0	-5.6	-6.6	-4.6
15	CAPN15 (GeneID 6650)	SID131508002	0	0.5	-3.1	4.1
16	TRAPPC3 (GeneID 27095)	SID131515353	0	9	1.3	16.8
17	PGM2 (GeneID 55276)	SID131520585	1	10.4	3.2	17.6
18	TRMT10A (GeneID 93587)	SID131506101	0	-2	5.5	-9.5
19	DUSP9 (GeneID 1852)	SID131505339	0	-3.3	-2.4	-4.3
20	SLAMF6 (GeneID 114836)	SID131521100	1	12.2	4.2	20.2
21	S100A9 (GeneID 6280)	SID131503936	0	-7.1	-6.6	-7.6
22	MUC2 (GeneID 4583)	SID131511310	0	4.2	-5.9	14.3
23	GTF2H3 (GeneID 2967)	SID131510773	0	3.6	5.5	1.8
24	EIF3FP2 (GeneID 83880)	SID131508968	0	1.7	0.9	2.4
25	HS3ST3A1 (GeneID 9955)	SID131515463	0	9.2	5.6	12.8
26	LOC254897	SID131513137	0	6.2	9.8	2.7
27	LIPJ (GeneID 142910)	SID131501198	-1	-11.5	0.6	-23.6
28	KCNV1 (GeneID 27012)	SID131502804	0	-33.1	-23.2	-43.1
29	PDXDC1 (GeneID 23042)	SID131516195	0	10.4	14.6	6.3
30	LRRC4C (GeneID 57689)	SID131501676	-1	-8.2	-35.4	19
31	HAUS5 (GeneID 23354)	SID131513648	0	6.8	8.6	5.1
32	MRPS18C (GeneID 51023)	SID131507169	0	-0.5	6	-7
33	TEX47 (GeneID 219557)	SID131516360	0	10.7	8.1	13.3
34	LOC400687	SID131508955	0	1.7	0.6	2.7
35	THBS3 (GeneID 7059)	SID131501672	-1	-8.2	-13.2	-3.3
36	PCDHGB3 (GeneID 56102)	SID131515516	0	9.3	8.1	10.4
37	RAD23B (GeneID 5887)	SID131515759	0	9.6	-4.4	23.7
38	FAM86C1P (GeneID 55199)	SID131505477	0	-3.1	-10.3	4.1
39	SRGAP3 (GeneID 9901)	SID131507032	0	-0.6	-2.6	1.3
40	LOC389669	SID131513132	0	6.2	9.8	2.7
41	ATOH8 (GeneID 84913)	SID131520741	1	11	14.4	7.5
42	CISD2 (GeneID 493856)	SID131518669	0	23.9	23.3	24.6
43	COL11A2 (GeneID 1302)	SID131505067	0	-3.9	-11	3.3
44	UGT2B4 (GeneID 7363)	SID131514193	0	7.5	3.1	11.9
45	TRANK1 (GeneID 9881)	SID131515500	0	9.3	8.4	10.1
46	LOC390667	SID131502788	-1	13.6	41.4	-14.1
47	BIRC8 (GeneID 112401)	SID131511964	0	5	0.6	9.3
48	FLII (GeneID 2314)	SID131519126	1	2.7	-10.4	15.8
49	LOC284397	SID131517646	0	14.2	22.2	6.1
50	RDH11 (GeneID 51109)	SID131503714	0	-8.2	-15.3	-1.2
51	PPP1R12C (GeneID 54776)	SID131514588	0	8	4.9	11.1
52	LOC387821	SID131515573	0	9.4	24	-5.3
53	MYH14 (GeneID 79784)	SID131500336	-2 (active)	-21.7	-15.5	-27.9
54	CYP51A1 (GeneID 1595)	SID131515695	0	9.6	11.7	7.4
55	GDPD1 (GeneID 284161)	SID131516795	0	11.6	9.5	13.8
56	OPTN (GeneID 10133)	SID131504450	0	-5.4	-0.1	-10.6
57	EDEM1 (GeneID 9695)	SID131505356	0	-3.3	1.4	-8
58	OR2S2 (GeneID 56656)	SID131511300	0	4.2	-1.9	10.3
59	SYT13 (GeneID 57586)	SID131511913	0	4.9	6.1	3.7
60	DTD1 (GeneID 92675)	SID131503260	0	-11.6	-8.4	-14.8
61	UGT2B10 (GeneID 7365)	SID131519084	1	2.1	-2.1	6.3
62	FNDC3B (GeneID 64778)	SID131521124	1	12.3	15.2	9.4
63	MAPT (GeneID 4137)	SID131517461	0	13.5	35.1	-8.1
64	RRN3 (GeneID 54700)	SID131511269	0	4.2	2.1	6.2
65	THSD4 (GeneID 79875)	SID131500772	-1	-16.2	-7.2	-25.2
66	VTI1B (GeneID 10490)	SID131503353	0	-10.7	-33.2	11.8
67	LOC391711 (GeneID 391711)	SID131522462	1	18.8	19.1	18.4
68	HSD17B8 (GeneID 7923)	SID131500759	-1	-16.5	-26.9	-6
69	ASB16-AS1 (GeneID 339201)	SID131509284	0	2	3.3	0.7
70	SLC1A3 (GeneID 6507)	SID131504326	0	-5.7	-11.5	0.1
71	LOC286187	SID131514957	0	8.5	6.3	10.6
72	NFAT5 (GeneID 10725)	SID131513591	0	6.8	4.6	9
73	ACTRT1 (GeneID 139741)	SID131503398	0	-10.4	-20.4	-0.3
